PubChem BioAssay AID686943 – Drosophila RNAi Screening Center – 2013

Aim: 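Fly genes whose loss alters ERK activation after insulin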 (primary screen)
Cells: Drosophila S2R+ haemocyte-like cells expressing YFP-tagged ERK (Rolled)
Reagent: long dsRNA against Drosophila genes
Treatment: insulin stimulation versus unstimulated cells; dose and duration not given
Read-out: 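Antibody staining for doubly phosphorylated ERK divided by ERK-YFP signal, as plate z-scores, in insulin-treated and untreated cells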
Direction: replicate 1, z-score of dpERK with insulin: higher = more active ERK per ERK-YFP after insulin
The screen tested about 23,000 reagents; this is an unselected part of those with a known target gene and a result. 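Extra replicates exist only for a retested subset of genes; insulin dose and duration not given; both raised and lowered dpERK matter.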 Names joined by + are all predicted targets of the reagent. Not all columns of the deposit are shown. Not given: the amount of reagent, the time to read-out.

gene	dsRNA	replicate 1, z-score of dpERK with insulin
Gli	DRSC03332	-0.18
sd	DRSC20370	0.5
sd	DRSC21712	0.69
Ac76E	DRSC09642	-0.81
Ac76E	DRSC09662	-0.08
CG17549	DRSC02625	1.14
Amun	DRSC19847	1.07
Snap24	DRSC16864	0.87
Tektin-A	DRSC01921	-0.62
CRMP	DRSC12073	-1.03
CRMP	DRSC12345	-1.09
IntS1	DRSC04343	-2.06
Hayan	DRSC19989	0.19
Hayan	DRSC22231	0.03
Sod3	DRSC07324	-0.56
Pomp	DRSC03201	-2.63
CG1463	DRSC19603	0.58
Alp1	DRSC11781	0.31
CG13978	DRSC14720	-0.15
Fkbp12	DRSC07425	0.13
CG43428	DRSC06205	0.86
CG15764	DRSC18070	1.11
Ance-5	DRSC04055	0.44
CG32305	DRSC08614	-0.92
CG12994	DRSC19192	-0.12
CG12994	DRSC19514	-1.36
CG12182	DRSC08142	-0.78
Fam92	DRSC02952	-0.02
Tim17b1	DRSC12179	0.98
CG6567 + CG4565	DRSC15599	0.03
CG31321	DRSC13028	-0.59
Ilp2	DRSC10968	-0.53
BG642163	DRSC00342	0.53
BG642163	DRSC00343	-0.31
GABPI	DRSC00494	-0.48
CG13465	DRSC10011	0.28
Awh	DRSC08140	0.85
trus	DRSC15772	0.17
Synd	DRSC15116	-1.07
CG14694	DRSC14917	0.09
dpr20	DRSC08265	0.08
insb	DRSC06995	-0.25
Sobp	DRSC07312	0.25
CG43057	DRSC01015	0.26
Acbp6	DRSC10217	0.27
CG32241	DRSC08100	-0.21
CG32241	DRSC21518	0.03
CG18493	DRSC15334	5.95
CG10738	DRSC09792	-0.19
Ublcp1	DRSC14149	-0.34
kn	DRSC05505	1.22
kn	DRSC05507	0.39
kn	DRSC06196	-0.46
kn	DRSC07637	-0.65
kn	DRSC21533	0.12
CAH7	DRSC15524	0.58
wtrw	DRSC14241	0.8
wtrw	DRSC15278	0.59
Nep6	DRSC19877	-1.09
CG15136	DRSC02436	0.09
Wdr59	DRSC02771	1.05
Or85f	DRSC16769	0.6
FarO	DRSC18475	0.91
bib	DRSC03496	0.07
Cox17	DRSC20145	0.56
Tsp42Ep	DRSC06871	0.17
CG8500	DRSC16434	-1.53
dre4	DRSC08714	-0.62
Amy-d + Amy-p	DRSC21242	0.19
CG14591	DRSC04868	0.87
Hsp70Bc	DRSC16053	-0.9
CG32236	DRSC08117	0.36
Fatp (retired record)	DRSC03054	-0.06

Targets listed so far whose gene name starts with D or d (2):
gene	dsRNA	replicate 1, z-score of dpERK with insulin
dpr20	DRSC08265	0.08
dre4	DRSC08714	-0.62
